From patent publication US20210380938A1, “HUMAN BLOOD-BRAIN BARRIER MODEL DERIVED FROM STEM CELLS” (BIOCANT - CENTRO DE INOVAÇÃO EM BIOTECNOLOGIA, priority 2013, published 2021)
At least one read-out could not be matched to a standard name with certainty.

System: brain-like endothelial cells (BLECs)
Test: Endothelial permeability (Pe) to Lucifer yellow, CD34+-derived ECs co-cultured with pericytes (BLECs)
Format: in vitro ADME, human
Conditions: day 6

Lucifer yellow
permeability (paracellular, Lucifer yellow): 10.2 ×10⁻⁶ cm/s
